Laboratory results taken from patent publication US8871728B2, “Non-peptide macrocyclic histone deacetylese (HDAC) inhibitors and methods of making and using thereof” (Georgia Tech Research Corporation, priority 2007, dated 2014).
Converted amounts (≈) assume the structure as drawn.

Tests used:
Format in all cases: cell-based
[1] = system: Plasmodium falciparum (W2 clone), chloroquine-resistant; assay: Plasmodium growth inhibition, parasite lactate dehydrogenase assay (Malstat); conditions: W2, read-out: Plasmodium falciparum (W2 clone) IC50 (μg/ml)
Description: (§1) The compounds described herein were also evaluated for parasitic activity against Plasmodium falciparum and Leismania donovani. P. falciparum and L. donovani are the causative parasites of malaria and leishmaniasis, two human diseases which constitute a serious threat to public health in tropical and sub-tropical countries. Antimalarial activity was evaluated in vitro using chloroquine-sensitive (D6, Sierra Leone) and chloroquine-resistant (W2, Indochina) strains of P. falciparum. Antileishmanial activity was evaluated in vitro against the promastigote stage of L. donovani.
(§2) Plasmodium growth inhibition was determined by a parasite lactate dehydrogenase assay using Malstat reagent. Inhibition of viability of the promastigote stage of L. donovani was determined using standard Alamar blue assay, modified to a fluorometric assay. […]
(§3) Macrocyclic histone deacetylase inhibitors were evaluated for parasitic activity against Plasmodium falciparum and Leismania donovani. […] Antimalarial activity was evaluated in vitro using chloroquine-sensitive (D6, Sierra Leone) and chloroquine-resistant (W2, Indochina) strains of P. falciparum. Antileishmanial activity was evaluated in vitro against the promastigote stage of L. donovani.
(§4) Plasmodium growth inhibition was determined by a parasite lactate dehydrogenase assay using Malstat reagent. […]

[2] = system: Plasmodium falciparum (D6 clone), chloroquine-sensitive; assay: as above; conditions: D6, read-out: Plasmodium falciparum (D6 clone) IC50 (μg/ml)
Description: as §1, §2, §3, §4

[3] = Cytotoxicity, Neutral Red assay; conditions: monkey, Vero cells (monkey kidney fibroblasts)
Description: Plasmodium growth inhibition was determined by a parasite lactate dehydrogenase assay using Malstat reagent. Inhibition of viability of the promastigote stage of L. donovani was determined using standard Alamar blue assay, modified to a fluorometric assay. […] To determine selective toxicity index, all compounds were tested against nontransformed mammalian cell lines namely, monkey kidney fibroblasts (Vero) and murine macrophages (J774.1) using Neutral Red assay. Plasmodium growth inhibition was determined by a parasite lactate dehydrogenase assay using Malstat reagent. Inhibition of viability of the promastigote stage of L. donovani was determined using standard Alamar blue assay, modified to a fluorometric assay. Amphotericin B and pentamidine, standard antileishmanial agents; chloroquine and […], standard antimalarial; and suberoylanilide hydroxamic acid (SAHA), standard HDACi were all used as positive controls. To determine selective toxicity index, all compounds were tested against nontransformed mammalian cell lines namely, monkey kidney fibroblasts (Vero) and murine macrophages (J774.1) using Neutral Red assay.

[4] = system: promastigote stage of L. donovani; assay: Antileishmanial Alamar blue fluorometric assay; conditions: Leishmania donovani, read-out: Antileshmanial activity IC50 (μg/ml)
Description: as §1, §2, §3, §4

## O=C(CCCCCCC(=O)Nc1ccccc1)NO [SAHA, suberoylanilide hydroxamic acid, reference compound]
[1]
  IC50: 0.47 µg/mL (≈ 1.78 µM)
[2]
  IC50: 0.25 µg/mL (≈ 0.946 µM)
[3]
  IC50: 1.2 µg/mL (≈ 4.54 µM)
[4]
  IC50: 22 µg/mL (≈ 83.2 µM)
